# At least one compound was matched to its structure with a doubt left.
# The chains behind the UniProt entries cited, without tags or fusion partners.
# UniProt O43174, whole entry, species assumed: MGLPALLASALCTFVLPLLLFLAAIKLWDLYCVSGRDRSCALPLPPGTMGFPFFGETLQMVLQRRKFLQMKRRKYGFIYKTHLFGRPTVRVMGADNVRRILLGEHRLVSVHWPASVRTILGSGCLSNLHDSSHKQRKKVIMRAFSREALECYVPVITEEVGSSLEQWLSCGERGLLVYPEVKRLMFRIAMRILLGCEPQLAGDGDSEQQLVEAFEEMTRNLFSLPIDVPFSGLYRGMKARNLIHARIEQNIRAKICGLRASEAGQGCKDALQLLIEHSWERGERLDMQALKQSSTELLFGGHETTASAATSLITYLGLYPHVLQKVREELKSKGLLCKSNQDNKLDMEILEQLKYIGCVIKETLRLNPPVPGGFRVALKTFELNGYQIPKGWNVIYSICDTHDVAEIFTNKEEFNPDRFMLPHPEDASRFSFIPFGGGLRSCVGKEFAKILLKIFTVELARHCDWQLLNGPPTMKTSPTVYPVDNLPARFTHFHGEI
# UniProt Q9NR63, whole entry, species assumed: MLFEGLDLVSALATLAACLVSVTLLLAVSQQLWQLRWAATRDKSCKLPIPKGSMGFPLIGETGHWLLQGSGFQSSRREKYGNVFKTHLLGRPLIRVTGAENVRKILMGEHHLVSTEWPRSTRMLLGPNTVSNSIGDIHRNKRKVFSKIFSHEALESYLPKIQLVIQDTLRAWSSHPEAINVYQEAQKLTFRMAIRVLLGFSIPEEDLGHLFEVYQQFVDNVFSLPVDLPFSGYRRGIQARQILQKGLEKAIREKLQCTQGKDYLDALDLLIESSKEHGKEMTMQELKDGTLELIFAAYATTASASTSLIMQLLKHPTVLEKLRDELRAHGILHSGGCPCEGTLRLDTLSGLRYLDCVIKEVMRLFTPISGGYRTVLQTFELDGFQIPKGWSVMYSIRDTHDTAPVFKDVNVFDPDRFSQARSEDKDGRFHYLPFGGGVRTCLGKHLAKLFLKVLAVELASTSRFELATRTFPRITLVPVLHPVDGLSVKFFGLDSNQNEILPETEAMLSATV
# Legend:
# CYP26A1 = CYP26A1 (Homo sapiens (Human), UniProt O43174); assay: Cell-based inhibitor assay, [H]-RA metabolism in CYP26A1 stably transfected HeLa cells
# Protocol: (§1) CYP26A1 or CYP26B1 stably transfected HeLa cells were maintained in Minimum Essential Medium (MEM) containing 10% fetal bovine serum (FBS) and 100 μg/mL hygromycin. Exponentially growing cells were harvested by incubation in trypsin. Cells were then collected and re-plated in 48-well culture plates at 5×10^5 cells in 0.2 mL of culture medium containing 0.05 μCi [H]-RA in the presence or absence of increasing concentrations of a test compound. The test compounds were diluted in dimethyl sulfoxide (DMSO) and then added in duplicate to wells at 0.01, 0.1, 1, 10 and 100 μM final concentration. […] Cells were incubated for 3 hours at 37° C. Retinoids were then extracted using the procedure of Bligh, et al., (1959), Canadian Journal of Biochemistry 37, 911-917, which was modified by using dichloromethane instead of chloroform. Each sample's water soluble radioactivity level was quantified using a β-scintillation counter (using Ecolume scintillation fluid, available from MP Biomedicals of Solon, Ohio, USA).
# CYP26B1 = CYP26B1 (Homo sapiens (Human), UniProt Q9NR63); assay: Cell-based inhibitor assay, [H]-RA metabolism in CYP26B1 stably transfected HeLa cells
# Protocol: as §1
compound,measurement,setting,value
Cc1cc2c(cc1S(=O)(=O)Nc1ccc(CC(=O)O)cc1)C(C)(C)CCC2(C)C [Cmpd 07],inhibitory activity towards CYP26A1 (in words),CYP26A1,selective inhibitory activity towards CYP26A1
same,inhibition of CYP26A1-mediated RA metabolism compared with ketoconazole (in words),CYP26A1; see IC50 values in Table 2,comparable to or better than ketoconazole
same,inhibition of CYP26B1 enzyme (in words),CYP26B1,None of the above compounds inhibited the CYP26B1 enzyme
